The values below come from PMC6265295.

No constants are given. Whether binding was seen depends on the method and setting. Binding seen in cells or lysates may run through a third protein. Some entries that bind do so weakly or less than the wild type.

In this assay the target is GFP-Rab35, Q15286. Briefly: co-IP; GFP-tagged proteins were immunoprecipitated from lysates of transfected H1299 cells (p53-/- or p53R273H) with an anti-GFP antibody conjugated to magnetic beads. Partners were detected by western blotting. The conditions noted are these: remark: other sources report otherwise.

B1: Podocalyxin (PODXL), endogenous, O00592 23-558 (protein)
chain: SPSPSPSPSQNATQTTTDSSNKTAPTPASSVTIMATDTAQQSTVPTSKANEILASVKATTLGVSSDSPGTTTLAQQVSGPVNTTVARGGGSGNPTTTIESPKSTKSADTTTVATSTATAKPNTTSSQNGAEDTTNSGGKSSHSVTTDLTSTKAEHLTTPHPTSPLSPRQPTSTHPVATPTSSGHDHLMKISSSSSTVAIPGYTFTSPGMTTTLLETVFHHVSQAGLELLTSGDLPTLASQSAGITASSVISQRTQQTSSQMPASSTAPSSQETVQPTSPATALRTPTLPETMSSSPTAASTTHRYPKTPSPTVAHESNWAKCEDLETQTQSEKQLVLNLTGNTLCAGGASDEKLISLICRAVKATFNPAQDKCGIRLASVPGSQTVVVKEITIHTKLPAKDVYERLKDKWDELKEAGVSDMKLGDQGPPEEAEDRFSMPLIITIVCMASFLLLVAALYGCCHQRLSQRKDQQRLTEELQTVENGYHDNPTLEVMETSSEMQEKKVVSLNGELGDSWIVPLDNLTKDDLDEEEDTHL
Regarding B1, the binding entry is given as “binds”.
